Weaker means in comparison with the reference protein, sequence or condition of that experiment.

Chains of the proteins cited; added tags and fusions are not shown.
UniProt P42582, whole entry: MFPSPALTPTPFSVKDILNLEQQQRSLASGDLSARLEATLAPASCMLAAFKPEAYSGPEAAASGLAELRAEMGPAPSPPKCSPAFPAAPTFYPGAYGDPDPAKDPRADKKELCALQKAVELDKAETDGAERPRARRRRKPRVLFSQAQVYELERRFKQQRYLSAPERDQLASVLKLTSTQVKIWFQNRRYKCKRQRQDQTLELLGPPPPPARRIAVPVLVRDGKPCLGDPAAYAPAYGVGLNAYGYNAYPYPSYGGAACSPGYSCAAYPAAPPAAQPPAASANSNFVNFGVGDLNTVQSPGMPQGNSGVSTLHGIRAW

Data set [1] addresses Nkx2.5 (UniProt P42582). As to the kind of experiment: activity in cells. To be noted: protein in cells, protein details: expression vector, Cos-1 cells, only the site is given.
Data set [2] relates to SRF (serum response factor) with co-activator Myocd. The data set is described as follows: activity in cells. To be noted: protein in cells, protein details: expression vectors, Cos-1 cells, only the site is given.

For “GGGAAAGACTGCCAAGTGCTCGTGGCC (double strand) [miR-143/145 enhancer Nkx2.5 site WT]”, the “activity on this sequence” value in data set [1] (Nkx2.5 independently activates enhancer luciferase reporter) is recorded as “active”. Turning to “GGGAAAGACTGCCGTGAGCTCGTGGCC (double strand) [miR-143/145 enhancer Nkx2.5 site mutant]”, the “activity on this sequence” value in data set [1] (mutation of each binding site progressively decreased luciferase activity, variant of miR-143/145 enhancer Nkx2.5 site WT) is on record as “less active”.

As for “GGGAGCAGCCTTGCTACCGCAGGGCAGGAGCCCC (double strand) [miR-143/145 enhancer SRF site, reporter mutant]”, the “activity on this sequence” value in data set [2] (CArG mutation decreased Myocd-dependent luciferase activity) is on record as “less active”.

As to “GGGAGCAGCCTTGCCATATAAGGGCAGGAGCCCC (double strand) [miR-143/145 enhancer SRF site, reporter WT]”, the “activity on this sequence” value in data set [2] (luciferase, SRF weak alone, synergistic with Myocd, site within enhancer) is “active”.

The values are drawn from patent US20120093789.
